Some peptides are written in HELM: one residue between dots, names in brackets for other building blocks, links after the first $.
Assay: general procedure: peptide synthesis; H-Gly-2-ClTrt resin (Novabiochem); HATU, HOAt, DIPEA (conjugation)
Conditions: conjugation step

Substance	final HPLC purity (700 nm) [%]	conjugation yield (two-step from 10) [% two-step yield from 10%]	final purity (method not given) (HPLC) [%]
PEPTIDE1{[Amp].L.R.G.D.L}|PEPTIDE2{[ZW800-1].[Ahx]}$PEPTIDE1,PEPTIDE1,1:R1-6:R2|PEPTIDE1,PEPTIDE2,1:R3-2:R2$$$V2.0	>98	55	
PEPTIDE1{[Amp].L.R.G.D.L}|CHEM1{[TzPEG3Nint]}$PEPTIDE1,PEPTIDE1,1:R1-6:R2|PEPTIDE1,CHEM1,1:R3-1:R1$$$V2.0			>99.5
